This is an account of results in publication PMC8495200.

By UniProt entry, the sequences of proteins in these tests, tags left out. Where a name states a change or a piece, a line headed by the entry shows the natural chain unless it says otherwise.
UniProt Q54X06: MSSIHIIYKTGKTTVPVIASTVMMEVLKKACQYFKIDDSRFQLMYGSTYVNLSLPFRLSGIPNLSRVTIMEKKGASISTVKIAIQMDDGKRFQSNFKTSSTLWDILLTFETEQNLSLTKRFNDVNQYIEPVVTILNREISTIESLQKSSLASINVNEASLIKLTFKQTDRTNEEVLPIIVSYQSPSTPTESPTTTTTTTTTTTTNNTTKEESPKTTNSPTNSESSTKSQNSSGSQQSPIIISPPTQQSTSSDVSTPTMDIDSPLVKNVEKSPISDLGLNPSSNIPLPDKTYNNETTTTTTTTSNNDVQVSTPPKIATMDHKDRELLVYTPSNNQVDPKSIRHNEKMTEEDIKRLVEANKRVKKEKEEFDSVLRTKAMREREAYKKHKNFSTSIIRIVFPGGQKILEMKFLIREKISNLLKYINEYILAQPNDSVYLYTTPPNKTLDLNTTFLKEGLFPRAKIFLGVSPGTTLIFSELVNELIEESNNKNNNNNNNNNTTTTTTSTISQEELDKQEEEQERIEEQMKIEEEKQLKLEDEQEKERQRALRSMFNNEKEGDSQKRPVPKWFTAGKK

These are yes or no findings as the source states them, for the method shown. Binding seen in cells or lysates may run through a third protein. Here binding means that the protein was enriched with, or labelled near, the bait; the list need not be complete. For some of these results: Sequences can lack the tags named with a protein.

To fix the notation:
B1: Hisactophilin-2 (protein, UniProt P42526 1-118)
chain: MGNRAFKAHNGHYLSAEHDHVKTHHGHHDHHTHFHIENHGSKVALRTHCGKYVSIGDHKQVYLSHHLHGDHSLFHLEHHHGKVSIKGHHHHYISVDGHGHVSTSHHHDHHATFEEHIL
B2: Vacuolin-A (protein, UniProt O15706 1-598)
chain: MIEGSGSKTPKRNSDEISVKSLSIHEANTLSSEHEHESGNEELTLSQIVIRSDFANESSERQSKIILDRFNQGIGKNSAFTDSPALGRGLSRVDVSYFVMGHRNQVAELYDPRGQRFSTVLTPDPTVNIKYVGPVSKTAHYFGAYGKHVLNVPAGHYAKAFSKNRPVLYGEGPHVIIDPTFQFDENNGFVNQQEPFIEHSTINILRIPAGKIAKVWIGTQPHILESRRDPYVFVDAQFKLVSPDGAKKAQLFESSSCTFVEHGSIKRIIPHTGEVAITYNNGILTIIPTPKDGKPVIIDSPTHNFEGFISTSLQTCLFPSKETKQQALADNKSALADEINLKIFQTRDSLRVGVVLVVAFKIVDPELAITKLGKEGIINHIENVSFADMGKAIQLSTLQEIMYFNSIKPGQATNDDSVQTIQDRVKSHLARDLFDYGVELSRLQIETMKVLDTEIAKKLAGQSVTSAEFTTKQATLVKEYDIKTTEARLKAETDNIALEQRNKAIISESQAKLSSAQREAESLLITAEAQKKASELQGELYTKYPILAEIELARIKAEALKNATLYITPQDAGAFMNSPLVYFDKMMNANNTIQQKKN
B3: Vacuolar protein sorting-associated protein 29 (protein, UniProt Q54IF7 1-183)
chain: MFIIAIGDVHVPHRSYGIPPEFKKLLVPEKIQHILCTGNLVSKEIHDYFKVLTSDVHIVRGDLDENTSYPDTKIVSIGQFKFGLCHGHQIVPWGDRASLAALQRQLDVDVLISGHTHVLEVFESNGKLFVNPGSATGAFSNISNDVIPSFVLMDVQSNNITVYIYKLIDGQVKVEKIDHVKQQ
B4: LIM domain-containing protein E (protein, UniProt O60952 1-199)
chain: MSASVKCGACAKTAYPLESVVANNNSYHKGCFKCSTCNSTLNVKTFKSFEGKLYCPVHTPKVSATAVTDSVALKNALNAPKKVAEGLGNAHRGLDEKPNIGLDSMATANALNAPKKVVEGLGNVQKGIGGKPTYAVFGADGQPTGEQQEQQQYTEEQYEQPQEEQQYQEEQQQYQEEEQQYQEEEQQYQEEEQQYEEEQ
B5: Small aggregate formation protein (protein, UniProt P54661 1-283)
chain: MEEIKETVEKKNKEKKYLNDYKIISEGNNIKVLQKKDFKPKFSLVSYKNYEQNFDFENAKIVSTNFAIDRHIKMKNPPDPFVFIKMPSSKLVQSQLKLYYENEGYKDIPVWITPCSAFMRYIKSYPIVGTVTETMEKKKGFTNRFLSTSETKASVSVGFFGCESSMEVTSGYEYEDTVTSEETRSWSQTLNEGSYIVYQNVLVYAYIIYGGSYKPYIDQMNKFNPGLNIKFFREDKCIFFVPINRDDAFTLRYQDNTWDPVEYDVLIDYLGQNQDKWFSGGLP
B6: Vacuolar proton translocating ATPase 100 kDa subunit (protein, UniProt Q54E04 1-815)
chain: MSFLRPSIWRSSPMQMVQLFVQIEAAHDTVDELGKLGLIQFLDDNEHVNLFQRNFVNEVKRCDDMEKKLKFFEDQVKKEPKLQKLLPDNMLSVVDDDSQMDELEGRFDELESELKQVNANQETLQRNYNELIQLRHVLTKDSVFFQENPNLIEGEGHEHSARSPLLAEDQHVSEVAKQGVKLGFITGVMNTDKMPQFQRSLWRTTRGNNYVKDARIEEEIIDPQTGEETAKTVFIVFFQGERLQQKIKKICESFGANIYDCPDNSFERSNLLQKVTVRITDLYEVLQRSKDHKRQTLAGIVPRLYSWKKKVLLEKSIYHTMNLFDYDVGRKCLIAKGWTPKDKIEEIQLALRTATTRSGALVPSVLSIIKTEGSPPTHFETNKYTSSFQEIVNAYGIAHYREVNPAVLTIVTFPFLFGVMFGDVGHGALLLLSALGLISLEKKLAGKKLNELIQMPFDGRYVLFLMSLFSIYVGFIYNECFSIPMNIFGSQYNLNSTTGLYTYQHTDRVYPVGVDPLWKGAPNELVYYNSFKMKLSIIFGVVQMSVGICFSLLNYLNQKGPIKIVNILTQFVPQMIFLWSIFGYMSVLIILKWVVPYRSFEVDKVDPPFILPTIIAMFLSPGGTPDVVFFSGQGAVQTALLFLALISIPVMLVIKPLFMKRFHFQEVERKKLGHHEEEHDDEALYTGHHGEEFEMGEVFVHQVIHTIEFVLGAVSNTASYLRLWALSLAHSELSSVFWERILIGQVERGNPFLAFVGFGAWLGASVAVLLLMESLSAFLHALRLHWVEFQNKFYIGDGVRFIPYSATRILSEDDE
B7: Probable pyridoxal 5-phosphate synthase subunit pdx1 (enzyme, UniProt Q54J47 1-305)
chain: MENLTENQATNNNSPFRIKSSLAQMLKGGVIMDVVTPEQARIAEEAGACAVMALEKIPADIRHFGGVARMSDPGMIKEIMNAVTIPVMAKVRIGHFVEAQILQEIGVDYIDESEVLTIADNENHIDKSEFKVPFVCGCRNLGEALRRISEGAAMIRTKGEAGTGDVVEAVRHARAVNKEIKKIQNMDPHELYTYAKEIQAPLELVKEVKRLGRLPVVNFAAGGVATPADAAMMMQLGMDGVFVGSGIFKSGDPAKRAKAIVQAVTHFNNPQIVAKVSENLGEAMVGINVDTLKDKENQNWSTKEK
B8: Dynamin-A (protein, UniProt Q94464 1-853)
chain: MDQLIPVINKLQDVFNTLGSDPLDLPQIVVVGSQSSGKSSVLENIVGRDFLPRGSGIVTRRPLILQLTHLPIADDGSQTQEWGEFLHKPNDMFYDFSEIREEIIRDTDRMTGKNKGISAQPINLKIYSPHVVNLTLVDLPGITKVPVGDQPTDIEQQIRRMVMAYIKKQNAIIVAVTPANTDLANSDALQLAKEVDPEGKRTIGVITKLDLMDKGTDAMEVLTGRVIPLTLGFIGVINRSQEDIIAKKSIRESLKSEILYFKNHPIYKSIANRSGTAYLSKTLNKLLMFHIRDTLPDLKVKVSKMLSDVQGELSTYGDPLYDTKNSQGALLLQIITIFSSNFKDAIDGKLTDLSNNELYGGARISYIFNEIYSHCVNNIDPLEGISLNDIRTTMRNATGPRAALFIPEISFELLVKKQVVRLEEPSAQCVEYVYDELQRIVSQLEAKELSRFINLKARVIEVVNNLLQKHKVPTKTMIEHLIKIETAFINTSHPDFVGGEGIFESLYKKQQLQQQNHLQQLQDQYQQQQQQQQQQQQQNGINNNQKGDNGNMNVNQQNMNQQNMNQQNQSTNPFLQQQQQGQNKYPGGPPAQQQPNQQPNQLNKGPQNMPPNQSKPSSIPQNGPNNNNNNNNNNNRQDHQQGSFFSSFFRASPDPSLGQYGGANNSNNSNNPTSPINSSSNSGNNYNTFGGQQSSSSSSQQLQQSSQSQYKTSYNNNNNSSSNNSSYNRYQDDFYGRGDKLNQVPSIIKAPDDLTSKEKFETELIRELLISYFNIVKKNVKDSVPKSIMHFLVNQSKEHIQNELVAALYKEELFDELLEESPQISSKRKSCKAMIEILRKANEIINEIRDFRN

One experiment concerns the target BirA-UBXD9 (D. discoideum) (UniProt Q54X06). The experiment in a line: proximity labelling; BioID: AX2/BirA-UBXD9 cells with 50 uM biotin for 16 h against AX2, streptavidin sepharose beads, mass spectrometry; four replicates, fold change > 1.4 and p < 0.05.
B1: the binding result was “binds”.

A further experiment addresses GFP-UBXD9 (N-terminally tagged UBXD9) (D. discoideum). The experiment in a line: affinity purification with mass spectrometry; GFP-trap beads, soluble proteins of AX2 cells expressing UBXD9-GFP or GFP-UBXD9 against AX2/GFP; four replicates, fold change > 1.4 and p < 0.05.
Turning to B2, the binding result is listed as “binds”.
Still for that read-out and setting: to B3 belongs “binds”.
On the same count and under the same terms, to B1 belongs “binds”.
The same measure, in the same setting: as for B4, the entry is “binds”; as for B5, “binds”.
With B6, the binding entry is reported as “binds”.
With B7, the binding entry is “binds”.
On the same count and under the same terms, as for B8, the entry is “binds”.

The next experiment addresses UBXD9-GFP (C-terminally tagged UBXD9) (D. discoideum) (UniProt Q54X06). Described as above.
In the case of B2, the binding entry was “binds”.
On the same count and under the same terms, to B3 belongs “binds”; to B4, “binds”.
For the molecule B5, the binding entry is recorded as “binds”.
Still for that read-out and setting: to B6 belongs “binds”; to B7, “binds”.
As for B8, the binding entry is given as “binds”.
